Assay results published in the supplement of paper PMC8728848.
This is one part of the list.

How the values were obtained:
Experiment in all cases: glycan array binding signal (z-score within array); higher = stronger binding
Conditions in all cases: glycan notation: IUPAC condensed, linker removed
[1] = molecular target: Gal(b1-4)GlcNAc(b1-3)Gal(b1-4)GlcNAc(b1-3)Gal(b1-4)GlcNAc(b1-2)Man(a1-3)[Gal(b1-4)GlcNAc(b1-3)Gal(b1-4)GlcNAc(b1-3)Gal(b1-4)GlcNAc(b1-2)Man(a1-6)]Man(b1-4)GlcNAc(b1-4)GlcNAc
Procedure, shortened: (§1)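 From the Consortium for Functional Glycomics database, 3228 arrays were curated, keeping only those whose protein sequence was available. Binding is given as a within-array Z-score averaged across arrays sharing a protein sequence and across linkers. Negative Z-scores can be read as non-binding.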

[2] = molecular target: Gal(b1-4)GlcNAc(b1-3)Gal(b1-4)GlcNAc(b1-3)Gal(b1-4)GlcNAc(b1-2)Man(a1-3)[Gal(b1-4)GlcNAc(b1-3)Gal(b1-4)GlcNAc(b1-3)Gal(b1-4)GlcNAc(b1-2)Man(a1-6)]Man(b1-4)GlcNAc(b1-4)[Fuc(a1-6)]GlcNAc
Procedure, shortened: as §1

[3] = molecular target: Gal(b1-4)GlcNAc(b1-3)Gal(b1-4)GlcNAc(b1-3)Gal(b1-4)GlcNAc(b1-2)[Gal(b1-4)GlcNAc(b1-3)Gal(b1-4)GlcNAc(b1-3)Gal(b1-4)GlcNAc(b1-6)]Man(a1-6)[Gal(b1-4)GlcNAc(b1-3)Gal(b1-4)GlcNAc(b1-3)Gal(b1-4)GlcNAc(b1-2)Man(a1-3)]Man(b1-4)GlcNAc(b1-4)[Fuc(a1-6)]GlcNAc
Procedure, shortened: as §1

[4] = molecular target: Gal(b1-4)GlcNAc(b1-3)Gal(b1-4)GlcNAc(b1-3)Gal(b1-4)GlcNAc(b1-3)Gal(b1-4)GlcNAc(b1-2)Man(a1-3)[Gal(b1-4)GlcNAc(b1-3)Gal(b1-4)GlcNAc(b1-3)Gal(b1-4)GlcNAc(b1-3)Gal(b1-4)GlcNAc(b1-2)Man(a1-6)]Man(b1-4)GlcNAc(b1-4)GlcNAc
Procedure, shortened: as §1

[5] = molecular target: Gal(b1-4)GlcNAc(b1-3)Gal(b1-4)GlcNAc(b1-3)Gal(b1-4)GlcNAc(b1-3)Gal(b1-4)GlcNAc(b1-2)Man(a1-3)[Gal(b1-4)GlcNAc(b1-3)Gal(b1-4)GlcNAc(b1-3)Gal(b1-4)GlcNAc(b1-3)Gal(b1-4)GlcNAc(b1-2)Man(a1-6)]Man(b1-4)GlcNAc(b1-4)[Fuc(a1-6)]GlcNAc
Procedure, shortened: as §1

[6] = molecular target: Gal(b1-4)GlcNAc(b1-3)Gal(b1-4)GlcNAc(b1-3)Gal(b1-4)GlcNAc(b1-3)Gal(b1-4)GlcNAc(b1-2)[Gal(b1-4)GlcNAc(b1-3)Gal(b1-4)GlcNAc(b1-3)Gal(b1-4)GlcNAc(b1-3)Gal(b1-4)GlcNAc(b1-6)]Man(a1-6)[Gal(b1-4)GlcNAc(b1-3)Gal(b1-4)GlcNAc(b1-3)Gal(b1-4)GlcNAc(b1-3)Gal(b1-4)GlcNAc(b1-2)Man(a1-3)]Man(b1-4)GlcNAc(b1-4)[Fuc(a1-6)]GlcNAc
Procedure, shortened: as §1

[7] = molecular target: Gal(b1-4)GlcNAc(b1-3)Gal(b1-4)GlcNAc(b1-3)Gal(b1-4)GlcNAc(b1-3)Gal(b1-4)GlcNAc(b1-3)Gal(b1-4)GlcNAc(b1-2)Man(a1-3)[Gal(b1-4)GlcNAc(b1-3)Gal(b1-4)GlcNAc(b1-3)Gal(b1-4)GlcNAc(b1-3)Gal(b1-4)GlcNAc(b1-3)Gal(b1-4)GlcNAc(b1-2)Man(a1-6)]Man(b1-4)GlcNAc(b1-4)GlcNAc
Procedure, shortened: as §1

[8] = molecular target: Gal(b1-4)GlcNAc(b1-3)Gal(b1-4)GlcNAc(b1-3)Gal(b1-4)GlcNAc(b1-3)Gal(b1-4)GlcNAc(b1-3)Gal(b1-4)GlcNAc(b1-2)Man(a1-3)[Gal(b1-4)GlcNAc(b1-3)Gal(b1-4)GlcNAc(b1-3)Gal(b1-4)GlcNAc(b1-3)Gal(b1-4)GlcNAc(b1-3)Gal(b1-4)GlcNAc(b1-2)Man(a1-6)]Man(b1-4)GlcNAc(b1-4)[Fuc(a1-6)]GlcNAc
Procedure, shortened: as §1

[9] = molecular target: Gal(b1-4)GlcNAc(b1-3)Gal(b1-4)GlcNAc(b1-3)Gal(b1-4)GlcNAc(b1-3)Gal(b1-4)GlcNAc(b1-3)Gal(b1-4)GlcNAc(b1-2)[Gal(b1-4)GlcNAc(b1-3)Gal(b1-4)GlcNAc(b1-3)Gal(b1-4)GlcNAc(b1-3)Gal(b1-4)GlcNAc(b1-3)Gal(b1-4)GlcNAc(b1-6)]Man(a1-6)[Gal(b1-4)GlcNAc(b1-3)Gal(b1-4)GlcNAc(b1-3)Gal(b1-4)GlcNAc(b1-3)Gal(b1-4)GlcNAc(b1-3)Gal(b1-4)GlcNAc(b1-2)Man(a1-3)]Man(b1-4)GlcNAc(b1-4)[Fuc(a1-6)]GlcNAc
Procedure, shortened: as §1

[10] = molecular target: Gal(b1-4)GlcNAc(b1-3)Gal(b1-4)GlcNAc(b1-3)Gal(b1-4)GlcNAc(b1-3)Gal(b1-4)GlcNAc(b1-3)Gal(b1-4)GlcNAc(b1-3)Gal(b1-4)GlcNAc(b1-2)Man(a1-3)[Gal(b1-4)GlcNAc(b1-3)Gal(b1-4)GlcNAc(b1-3)Gal(b1-4)GlcNAc(b1-3)Gal(b1-4)GlcNAc(b1-3)Gal(b1-4)GlcNAc(b1-3)Gal(b1-4)GlcNAc(b1-2)Man(a1-6)]Man(b1-4)GlcNAc(b1-4)GlcNAc
Procedure, shortened: as §1

[11] = molecular target: Gal(b1-4)GlcNAc(b1-3)Gal(b1-4)GlcNAc(b1-3)GalNAc
Procedure, shortened: as §1

[12] = molecular target: Gal(b1-4)GlcNAc(b1-3)Gal(b1-4)GlcNAc(b1-3)[Gal(b1-4)GlcNAc(b1-3)Gal(b1-4)GlcNAc(b1-6)]GalNAc
Procedure, shortened: as §1

[13] = molecular target: Gal(b1-4)GlcNAc(b1-3)Gal(b1-4)GlcNAc(b1-6)[Gal(b1-3)]GalNAc
Procedure, shortened: as §1

[14] = molecular target: Gal(b1-4)GlcNAc(b1-3)Gal(b1-4)[Fuc(a1-3)]GlcNAc(b1-3)Gal(b1-4)[Fuc(a1-3)]GlcNAc
Procedure, shortened: as §1

[15] = molecular target: Gal(b1-4)GlcNAc(b1-3)GalNAc
Procedure, shortened: as §1

[16] = molecular target: Gal(b1-4)GlcNAc(b1-3)[Fuc(a1-3)GlcNAc(b1-6)]Gal(b1-4)Glc
Procedure, shortened: as §1

[17] = molecular target: Gal(b1-4)GlcNAc(b1-3)[Gal(b1-4)GlcNAc(b1-6)]Gal(b1-4)GlcNAc
Procedure, shortened: as §1

[18] = molecular target: Gal(b1-4)GlcNAc(b1-3)[GlcNAc(b1-6)]Gal(b1-4)GlcNAc
Procedure, shortened: as §1

[19] = molecular target: Gal(b1-4)GlcNAc(b1-6)Gal(b1-4)GlcNAc
Procedure, shortened: as §1

B1: AntigenI/IIC123 (Streptococcus mutans), C9E3B4 (protein)
chain: MASMTGGQQMGRIHFHYFKLAVQPQVNKEIRNNNDINIDRTLVAKQSVVKFQLKTADLPAGRDETTSFVLVDPLPSGYQFNPEATKAASPGFDVTYDNATNTVTFKATAATLATFNADLTKSVATIYPTVVGQVLNDGATYKNNFTLTVNDAYGIKSNVVRVTTPGKPNDPDNPNNNYIKPTKVNKNENGVVIDGKTVLAGSTNYYELTWDLDQYKNDRSSADTIQKGFYYVDDYPEEALELRQDLVKITDANGNEVTGVSVDNYTNLEAAPQEIRDVLSKAGIRPKGAFQIFRADNPREFYDTYVKTGIDLKIVSPMVVKKQMGQTGGSYENQAYQIDFGNGYASNIIINNVPKINPKKDVTLTLDPADTNNVDGQTIPLNTVFNYRLIGGIIPADHSEELFEYNFYDDYDQTGDHYTGQYKVFAKVDITFKDGSIIKSGAELTQYTTAEVDTAKGAITIKFKEAFLRSVSIDSAFQAESYIQMKRIAVGTFENTYINTVNGVTYSSLEHHHHHH
glycan array binding signal (z-score) [1]: 2.33 | glycan array binding signal (z-score) [2]: 3.9 | glycan array binding signal (z-score) [3]: 3.08 | glycan array binding signal (z-score) [4]: 0.859 | glycan array binding signal (z-score) [5]: 2.83 | glycan array binding signal (z-score) [6]: 2.31 | glycan array binding signal (z-score) [7]: 0.725 | glycan array binding signal (z-score) [8]: 0.176 | glycan array binding signal (z-score) [9]: 4.43 | glycan array binding signal (z-score) [10]: 0.577 | glycan array binding signal (z-score) [11]: -0.676 | glycan array binding signal (z-score) [12]: -0.036 | glycan array binding signal (z-score) [13]: -0.271 | glycan array binding signal (z-score) [14]: -0.431 | glycan array binding signal (z-score) [15]: -0.982 | glycan array binding signal (z-score) [16]: -1.07 | glycan array binding signal (z-score) [17]: -0.642 | glycan array binding signal (z-score) [18]: -0.644 | glycan array binding signal (z-score) [19]: 0.798
